# Measurements from the supplement of paper PMC12819154, “High-throughput peptide-centric local stability assay extends protein–ligand identification to membrane proteins, tissues and bacteria” (Nature Structural & Molecular Biology, 2025).
# Sequences of proteins named here, by UniProt entry; tags and fusion partners are left off. A change or cut given only in a name is not applied to a line headed by its entry.
# UniProt O08919: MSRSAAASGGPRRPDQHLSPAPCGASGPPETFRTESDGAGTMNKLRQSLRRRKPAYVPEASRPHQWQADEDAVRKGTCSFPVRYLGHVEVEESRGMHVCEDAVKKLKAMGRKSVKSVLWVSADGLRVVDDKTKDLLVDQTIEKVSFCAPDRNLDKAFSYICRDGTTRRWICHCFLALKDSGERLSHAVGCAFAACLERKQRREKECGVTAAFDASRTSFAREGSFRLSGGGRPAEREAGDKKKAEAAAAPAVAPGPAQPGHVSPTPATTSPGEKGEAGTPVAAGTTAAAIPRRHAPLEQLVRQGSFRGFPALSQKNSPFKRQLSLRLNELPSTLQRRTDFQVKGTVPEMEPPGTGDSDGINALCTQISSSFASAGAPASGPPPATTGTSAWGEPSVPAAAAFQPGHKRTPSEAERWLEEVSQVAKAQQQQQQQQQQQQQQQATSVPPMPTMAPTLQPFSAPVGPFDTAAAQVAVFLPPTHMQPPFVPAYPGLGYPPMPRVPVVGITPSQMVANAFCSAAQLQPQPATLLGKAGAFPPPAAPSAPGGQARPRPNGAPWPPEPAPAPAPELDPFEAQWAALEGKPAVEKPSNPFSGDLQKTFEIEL
# UniProt O08915: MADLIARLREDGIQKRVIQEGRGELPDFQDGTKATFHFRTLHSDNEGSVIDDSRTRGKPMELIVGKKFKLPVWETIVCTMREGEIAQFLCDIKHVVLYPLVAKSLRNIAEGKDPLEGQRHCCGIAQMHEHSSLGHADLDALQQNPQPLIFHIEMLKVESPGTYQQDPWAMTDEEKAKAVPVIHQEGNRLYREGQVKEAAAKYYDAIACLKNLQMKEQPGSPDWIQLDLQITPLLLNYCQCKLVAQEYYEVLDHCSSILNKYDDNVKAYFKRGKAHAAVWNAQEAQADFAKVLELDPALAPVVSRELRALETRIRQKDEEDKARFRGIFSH
# UniProt O35379: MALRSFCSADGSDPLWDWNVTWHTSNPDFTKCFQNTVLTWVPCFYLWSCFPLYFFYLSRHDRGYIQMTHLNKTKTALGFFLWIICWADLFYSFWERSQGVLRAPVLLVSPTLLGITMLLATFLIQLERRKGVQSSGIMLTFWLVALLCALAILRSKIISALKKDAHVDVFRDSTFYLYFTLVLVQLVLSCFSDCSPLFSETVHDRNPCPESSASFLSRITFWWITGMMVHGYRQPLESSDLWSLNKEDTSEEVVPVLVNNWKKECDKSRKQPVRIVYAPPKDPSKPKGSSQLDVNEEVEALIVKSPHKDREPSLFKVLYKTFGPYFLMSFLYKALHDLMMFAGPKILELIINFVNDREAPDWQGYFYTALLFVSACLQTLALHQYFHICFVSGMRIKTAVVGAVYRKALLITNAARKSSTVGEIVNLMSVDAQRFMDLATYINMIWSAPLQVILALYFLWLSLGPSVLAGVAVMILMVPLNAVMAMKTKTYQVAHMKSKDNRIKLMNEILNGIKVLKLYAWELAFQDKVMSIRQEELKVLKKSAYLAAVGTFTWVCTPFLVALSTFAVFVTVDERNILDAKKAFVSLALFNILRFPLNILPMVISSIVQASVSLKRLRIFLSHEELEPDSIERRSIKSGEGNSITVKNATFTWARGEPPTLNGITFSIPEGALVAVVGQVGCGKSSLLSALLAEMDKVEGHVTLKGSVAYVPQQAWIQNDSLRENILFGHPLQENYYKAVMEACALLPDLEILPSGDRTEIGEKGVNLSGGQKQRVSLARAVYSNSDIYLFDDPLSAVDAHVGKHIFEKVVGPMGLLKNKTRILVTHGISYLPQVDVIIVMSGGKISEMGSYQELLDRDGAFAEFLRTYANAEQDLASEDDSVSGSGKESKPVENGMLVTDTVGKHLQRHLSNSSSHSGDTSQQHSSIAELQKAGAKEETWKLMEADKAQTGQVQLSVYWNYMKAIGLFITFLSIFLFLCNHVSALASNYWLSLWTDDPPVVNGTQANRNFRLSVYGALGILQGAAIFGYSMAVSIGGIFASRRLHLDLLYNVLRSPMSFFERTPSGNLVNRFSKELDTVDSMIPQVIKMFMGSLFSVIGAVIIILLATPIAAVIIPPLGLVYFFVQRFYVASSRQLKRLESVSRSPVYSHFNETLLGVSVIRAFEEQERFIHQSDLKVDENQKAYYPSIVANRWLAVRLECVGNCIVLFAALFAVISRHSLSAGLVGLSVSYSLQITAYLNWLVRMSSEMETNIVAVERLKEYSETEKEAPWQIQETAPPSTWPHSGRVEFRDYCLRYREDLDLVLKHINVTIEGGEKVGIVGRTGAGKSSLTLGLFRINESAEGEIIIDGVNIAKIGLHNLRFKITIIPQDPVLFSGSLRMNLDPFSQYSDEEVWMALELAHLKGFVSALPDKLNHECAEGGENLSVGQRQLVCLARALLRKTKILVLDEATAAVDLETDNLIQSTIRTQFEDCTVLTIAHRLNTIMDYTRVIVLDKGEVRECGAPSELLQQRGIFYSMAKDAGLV
# UniProt E9Q7E2, whole entry: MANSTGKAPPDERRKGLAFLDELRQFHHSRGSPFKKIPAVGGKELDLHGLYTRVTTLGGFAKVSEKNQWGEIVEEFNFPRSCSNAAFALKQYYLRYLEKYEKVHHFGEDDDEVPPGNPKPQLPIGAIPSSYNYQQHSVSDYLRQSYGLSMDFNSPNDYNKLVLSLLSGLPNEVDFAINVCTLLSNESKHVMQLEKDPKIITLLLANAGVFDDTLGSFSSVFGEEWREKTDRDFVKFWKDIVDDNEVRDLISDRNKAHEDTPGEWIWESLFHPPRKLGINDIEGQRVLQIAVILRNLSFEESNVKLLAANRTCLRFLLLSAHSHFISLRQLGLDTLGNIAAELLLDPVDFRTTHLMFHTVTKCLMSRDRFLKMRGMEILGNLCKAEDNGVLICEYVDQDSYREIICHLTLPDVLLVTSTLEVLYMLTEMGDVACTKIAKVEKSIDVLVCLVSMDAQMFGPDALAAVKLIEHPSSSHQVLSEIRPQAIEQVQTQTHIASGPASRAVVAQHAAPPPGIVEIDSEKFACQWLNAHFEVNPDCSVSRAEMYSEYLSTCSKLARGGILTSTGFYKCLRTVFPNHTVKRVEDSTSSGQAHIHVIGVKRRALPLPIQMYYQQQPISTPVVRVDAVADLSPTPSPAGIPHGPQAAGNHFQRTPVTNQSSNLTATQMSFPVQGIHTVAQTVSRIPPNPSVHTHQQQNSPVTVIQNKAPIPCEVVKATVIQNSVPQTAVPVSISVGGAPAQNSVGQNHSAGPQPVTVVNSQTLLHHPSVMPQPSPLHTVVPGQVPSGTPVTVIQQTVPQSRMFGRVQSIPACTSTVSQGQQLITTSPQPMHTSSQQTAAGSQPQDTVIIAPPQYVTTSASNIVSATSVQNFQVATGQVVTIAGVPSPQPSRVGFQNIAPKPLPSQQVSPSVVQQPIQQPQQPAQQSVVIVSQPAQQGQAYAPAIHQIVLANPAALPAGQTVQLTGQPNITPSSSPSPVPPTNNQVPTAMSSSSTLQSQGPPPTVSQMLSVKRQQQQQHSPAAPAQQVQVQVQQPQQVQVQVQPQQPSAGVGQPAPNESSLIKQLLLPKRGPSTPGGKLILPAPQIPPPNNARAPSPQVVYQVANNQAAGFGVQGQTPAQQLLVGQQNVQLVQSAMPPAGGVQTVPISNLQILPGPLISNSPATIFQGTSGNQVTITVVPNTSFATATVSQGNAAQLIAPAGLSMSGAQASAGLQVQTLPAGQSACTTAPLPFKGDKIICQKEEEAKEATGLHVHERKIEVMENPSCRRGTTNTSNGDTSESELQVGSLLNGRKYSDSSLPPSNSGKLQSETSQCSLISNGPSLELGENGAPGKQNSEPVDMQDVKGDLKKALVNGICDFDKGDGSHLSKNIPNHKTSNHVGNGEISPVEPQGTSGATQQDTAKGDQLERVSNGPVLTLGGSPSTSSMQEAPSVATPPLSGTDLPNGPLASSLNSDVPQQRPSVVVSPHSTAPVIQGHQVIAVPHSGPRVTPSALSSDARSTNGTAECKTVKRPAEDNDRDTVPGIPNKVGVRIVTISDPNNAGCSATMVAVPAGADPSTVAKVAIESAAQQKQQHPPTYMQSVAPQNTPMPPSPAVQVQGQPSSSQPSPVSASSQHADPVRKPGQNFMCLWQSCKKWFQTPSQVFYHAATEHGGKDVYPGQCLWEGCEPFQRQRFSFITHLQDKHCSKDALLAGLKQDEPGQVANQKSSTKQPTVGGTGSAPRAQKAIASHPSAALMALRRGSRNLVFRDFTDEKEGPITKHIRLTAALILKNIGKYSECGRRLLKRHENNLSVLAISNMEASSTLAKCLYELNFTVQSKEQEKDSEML
# UniProt B5X0E4: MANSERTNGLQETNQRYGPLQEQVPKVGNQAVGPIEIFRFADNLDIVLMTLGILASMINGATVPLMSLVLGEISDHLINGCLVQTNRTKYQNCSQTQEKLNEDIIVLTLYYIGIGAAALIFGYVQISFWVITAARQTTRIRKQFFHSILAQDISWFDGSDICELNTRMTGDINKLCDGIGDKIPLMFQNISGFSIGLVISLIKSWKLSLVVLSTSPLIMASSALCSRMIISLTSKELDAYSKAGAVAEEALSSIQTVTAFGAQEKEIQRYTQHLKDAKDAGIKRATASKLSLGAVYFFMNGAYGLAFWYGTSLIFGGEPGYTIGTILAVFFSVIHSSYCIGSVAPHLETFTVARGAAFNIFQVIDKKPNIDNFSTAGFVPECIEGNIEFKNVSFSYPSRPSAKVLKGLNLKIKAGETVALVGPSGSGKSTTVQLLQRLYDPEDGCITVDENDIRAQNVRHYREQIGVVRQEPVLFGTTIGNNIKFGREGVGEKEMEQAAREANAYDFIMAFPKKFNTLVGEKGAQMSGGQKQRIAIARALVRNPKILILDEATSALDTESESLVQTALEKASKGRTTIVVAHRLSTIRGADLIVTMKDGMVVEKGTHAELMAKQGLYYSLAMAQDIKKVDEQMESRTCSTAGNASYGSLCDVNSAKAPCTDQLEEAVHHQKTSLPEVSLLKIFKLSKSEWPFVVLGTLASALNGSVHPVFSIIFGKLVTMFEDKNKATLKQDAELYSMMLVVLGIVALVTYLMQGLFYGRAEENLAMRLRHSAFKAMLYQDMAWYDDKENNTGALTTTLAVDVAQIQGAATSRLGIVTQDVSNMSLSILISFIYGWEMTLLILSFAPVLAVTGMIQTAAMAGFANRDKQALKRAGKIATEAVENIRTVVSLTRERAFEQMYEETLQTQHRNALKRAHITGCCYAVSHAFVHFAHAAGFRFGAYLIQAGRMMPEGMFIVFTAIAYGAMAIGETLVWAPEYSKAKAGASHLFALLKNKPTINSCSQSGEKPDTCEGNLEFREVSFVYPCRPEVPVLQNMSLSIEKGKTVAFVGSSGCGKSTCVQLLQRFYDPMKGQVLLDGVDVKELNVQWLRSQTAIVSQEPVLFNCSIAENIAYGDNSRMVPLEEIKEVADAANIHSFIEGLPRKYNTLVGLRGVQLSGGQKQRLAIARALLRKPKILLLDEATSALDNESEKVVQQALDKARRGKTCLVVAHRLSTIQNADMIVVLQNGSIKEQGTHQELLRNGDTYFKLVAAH
# UniProt O08810: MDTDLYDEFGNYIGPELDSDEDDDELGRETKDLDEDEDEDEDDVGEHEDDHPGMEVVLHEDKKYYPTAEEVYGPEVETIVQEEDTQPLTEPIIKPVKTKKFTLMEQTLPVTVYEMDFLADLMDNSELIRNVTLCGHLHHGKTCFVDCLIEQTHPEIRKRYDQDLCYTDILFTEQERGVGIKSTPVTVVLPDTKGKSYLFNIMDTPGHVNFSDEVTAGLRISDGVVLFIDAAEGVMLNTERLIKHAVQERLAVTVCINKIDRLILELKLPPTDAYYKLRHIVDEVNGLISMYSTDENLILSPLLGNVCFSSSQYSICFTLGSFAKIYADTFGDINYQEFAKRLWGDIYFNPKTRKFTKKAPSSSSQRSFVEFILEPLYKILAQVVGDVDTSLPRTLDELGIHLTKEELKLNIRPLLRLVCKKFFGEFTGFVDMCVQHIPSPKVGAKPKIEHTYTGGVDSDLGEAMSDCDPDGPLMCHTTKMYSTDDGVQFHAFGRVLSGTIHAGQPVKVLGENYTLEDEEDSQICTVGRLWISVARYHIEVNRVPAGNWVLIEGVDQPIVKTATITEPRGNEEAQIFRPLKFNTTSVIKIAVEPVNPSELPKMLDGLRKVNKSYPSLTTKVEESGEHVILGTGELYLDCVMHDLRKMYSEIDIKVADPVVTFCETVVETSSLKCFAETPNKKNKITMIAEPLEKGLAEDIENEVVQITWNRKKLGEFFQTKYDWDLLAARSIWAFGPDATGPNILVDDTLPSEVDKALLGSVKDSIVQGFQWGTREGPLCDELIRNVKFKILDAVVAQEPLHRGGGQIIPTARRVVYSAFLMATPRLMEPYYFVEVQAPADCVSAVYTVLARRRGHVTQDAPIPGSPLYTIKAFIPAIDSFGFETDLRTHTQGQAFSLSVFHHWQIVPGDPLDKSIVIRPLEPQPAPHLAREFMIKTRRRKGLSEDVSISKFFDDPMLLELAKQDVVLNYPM
# This is one part of the list. Small differences around the control level are noise.
# Compound: CN[C@@H]1C[C@H]2O[C@@](C)([C@@H]1OC)n1c3ccccc3c3c4c(c5c6ccccc6n2c5c31)C(=O)NC4 [staurosporine]
# Test: log2 fold change of tryptic peptide abundance, ligand vs vehicle (limited proteolysis) (log2 ratio); higher = more trypsin-susceptible (destabilized)
# Settings: ligand concentration: 20 uM; sample: mouse liver crude lysate; replicate design: treated separately
row,Target,log2 fold change
1,"UniProt O08917 (peptide sequence: LTGVSISQVNHNKPLR, peptide start residue: 411)",-0.179
2,"UniProt O08919 (peptide sequence: AFSYICR, peptide start residue: 126)",-0.112
3,"UniProt G5E8K5 (peptide sequence: CFCMTDDRVDK, peptide start residue: 1331)",-0.366
4,"UniProt F8VPQ2 (peptide sequence: ILGQQSPEKK, peptide start residue: 862)",0.411
5,"UniProt E9Q5F9 (peptide sequence: VKNDQLR, peptide start residue: 657)",0.674
6,"UniProt E9QAG8 (peptide sequence: THSGEKPYECNQCGK, peptide start residue: 125)",-0.308
7,"UniProt F2Z461 (peptide sequence: ELSLPLGR, peptide start residue: 785)",-0.402
8,"UniProt E9Q7X6 (peptide sequence: SDPSIGGGESTGR, peptide start residue: 419)",-0.291
9,"UniProt O35218 (peptide sequence: FLIDNPTEK, peptide start residue: 367)",-0.403
10,"UniProt B2RWS6 (peptide sequence: LIQQQLVLLLHAHK, peptide start residue: 338)",-0.226
11,"UniProt B9EJ86 (peptide sequence: CLWIHPR, peptide start residue: 494)",0.355
12,"UniProt E9Q309 (peptide sequence: KVATAPPAPAYK, peptide start residue: 323)",0.816
13,"UniProt F6VAN0 (peptide sequence: LSVTKPVLQSATR, peptide start residue: 273)",-0.19
14,"UniProt O09030 (peptide sequence: QSKEETDSVVLIENLK, peptide start residue: 405)",-0.239
15,"UniProt O35454 (peptide sequence: KDYESLDYDR, peptide start residue: 46)",-0.39
16,"UniProt O09172 (peptide sequence: CPSTHSEELR, peptide start residue: 35)",0.193
17,"UniProt O08915 (peptide sequence: GKPMELIVGK, peptide start residue: 57)",0.289
18,"UniProt O35379 (peptide sequence: ESKPVENGMLVTDTVGK, peptide start residue: 889)",-0.172

row,Target,log2 fold change
1,"UniProt D3Z6Q9 (peptide sequence: GQTGKDTPSPGDVVLR, peptide start residue: 372)",-0.233
2,"UniProt B2RXV4 (peptide sequence: ARPDDEVGPAVAPGHPLGK, peptide start residue: 2)",0.0379
3,"UniProt O35382 (peptide sequence: KFLDASQYSAAGGSSVR, peptide start residue: 241)",-0.253
4,"UniProt D3YZG8 (peptide sequence: AWRGFGSSGRR, peptide start residue: 29)",0.12
5,"UniProt O08811 (peptide sequence: GAILLSVAR, peptide start residue: 593)",0.36
6,"UniProt O35295 (peptide sequence: RFYLDVK, peptide start residue: 57)",0.137
7,"UniProt E9Q7E2 (peptide sequence: DALLAGLKQDEPGQVANQK, peptide start residue: 1688)",-0.266
8,"UniProt B5X0E4 (peptide sequence: STTVQLLQR, peptide start residue: 433)",-0.339
9,"UniProt O08810 (peptide sequence: GGGQIIPTAR, peptide start residue: 717)",-0.311
10,"UniProt E9Q9R9 (peptide sequence: IKIPLTPR, peptide start residue: 1274)",0.0597
11,"UniProt O35309 (peptide sequence: CHSVAVSPCIERCLEK, peptide start residue: 231)",-0.564
12,"UniProt O08832 (peptide sequence: RLPDLDTR, peptide start residue: 48)",-0.184
13,"UniProt E9Q137 (peptide sequence: ELSTPERGEE, peptide start residue: 300)",0.158
14,"UniProt O35448 (peptide sequence: WLFPTSMR, peptide start residue: 151)",-0.124
15,"UniProt O35347 (peptide sequence: ELEAMEHR, peptide start residue: 122)",-0.666
16,"UniProt O08756 (peptide sequence: EIQAALTLAK, peptide start residue: 70)",0.169
17,"UniProt O08789 (peptide sequence: TSNLSVLR, peptide start residue: 257)",-0.388
18,"UniProt O35216 (peptide sequence: QSSSVGSQTLR, peptide start residue: 24)",-0.0774

# Shown bar-delimited: part of the list above.
row | Target | log2 fold change
11 | UniProt O35309 (peptide sequence: CHSVAVSPCIERCLEK, peptide start residue: 231) | -0.564
12 | UniProt O08832 (peptide sequence: RLPDLDTR, peptide start residue: 48) | -0.184
13 | UniProt E9Q137 (peptide sequence: ELSTPERGEE, peptide start residue: 300) | 0.158
14 | UniProt O35448 (peptide sequence: WLFPTSMR, peptide start residue: 151) | -0.124
15 | UniProt O35347 (peptide sequence: ELEAMEHR, peptide start residue: 122) | -0.666
16 | UniProt O08756 (peptide sequence: EIQAALTLAK, peptide start residue: 70) | 0.169
17 | UniProt O08789 (peptide sequence: TSNLSVLR, peptide start residue: 257) | -0.388
